# In the supplement of paper PMC8728848:
# The list shows a part of the results.
# B1: truncCC1G-10077 (Coprinopsis cinerea) (protein)
# chain: MHHHHHHHHPLPSPGPGWVLIQNGGTGKFLCSTPSGDIGTADGPETVYDYSVQWRFIQREYTGVYHVVNRATGAYLRQIGTSMPSIGLAEENDDELKDWWMLETYDNSEIGLASIISRWTGNVLDHYGGVSVQALDNNTENSYRSWAIIPARDWLTSFSLVNGQGGLCLAAQYAREETRLSTTANVNDFHAQWVFRKPSGSSGYTIQNKYNNHYVGGTSARWELVVCCNKYFGIRNTSTQKYLAIEDGQVTFQDQDMTDRKQCWELCSGRATDTSGNDYDLIYMDDDLLEVMIPWVGDKQGDLKHYIEKRATKKPPKDKGGWQLPAAGLIKKPKFNDIRQLLQELIEQWEWDVVNEEREQIQTLVSIDEAEARRLLGRRPHPDIVAAYQRSRSSTLFRIDRQGYFNIAGDRYVNIQGQYGDDSYFHIALPVGVRFGREQIRRFLRDSLDRSTSVTITPTTCKPPSGGPDYNRDPDSDGDNSWIKWTIAVVGTSAIKHSEL
# Assays:
# Assay in all cases: glycan array binding signal (z-score within array); higher = stronger binding
# Conditions in all cases: glycan notation: IUPAC condensed, linker removed
# [1] = target: Fuc(a1-2)Gal(b1-4)GlcNAc(b1-3)Gal(b1-4)GlcNAc(b1-3)Gal(b1-4)GlcNAc
# In short: (§1)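 Glycan array data came from 3228 arrays in the Consortium for Functional Glycomics database, and only arrays with an available protein sequence were kept. Glycan names were put into IUPAC-condensed notation, and columns mapping to the same glycan were averaged. The binding signal is a within-array Z-score, averaged across arrays of one protein sequence run at different concentrations or buffers and across linkers. A negative Z-score can be read as non-binding.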
# [2] = target: Fuc(a1-2)Gal(b1-4)GlcNAc(b1-3)GalNAc
# In short: as §1
# [3] = target: Fuc(a1-2)Gal(b1-4)GlcNAc(b1-3)[Fuc(a1-2)Gal(b1-4)GlcNAc(b1-6)]GalNAc
# In short: as §1
# [4] = target: Fuc(a1-2)Gal(b1-4)GlcNAc(b1-3)[Fuc(a1-3)[Gal(b1-4)]GlcNAc(b1-6)]Gal(b1-4)Glc
# In short: as §1
# [5] = target: Fuc(a1-2)Gal(b1-4)GlcNAc(b1-6)GalNAc
# In short: as §1
# [6] = target: Fuc(a1-2)Gal(b1-4)GlcNAc6S
# In short: as §1
# [7] = target: Fuc(a1-2)Gal(b1-4)[Fuc(a1-3)]GlcNAc
# In short: as §1
# [8] = target: Fuc(a1-2)Gal(b1-4)[Fuc(a1-3)]GlcNAc(b1-2)Man(a1-3)[Fuc(a1-2)Gal(b1-4)[Fuc(a1-3)]GlcNAc(b1-2)Man(a1-6)]Man(b1-4)GlcNAc(b1-4)[Fuc(a1-6)]GlcNAc
# In short: as §1
# [9] = target: Fuc(a1-2)Gal(b1-4)[Fuc(a1-3)]GlcNAc(b1-2)[Fuc(a1-2)Gal(b1-4)[Fuc(a1-3)]GlcNAc(b1-4)]Man(a1-3)[Fuc(a1-2)Gal(b1-4)[Fuc(a1-3)]GlcNAc(b1-2)Man(a1-6)]Man(b1-4)GlcNAc(b1-4)GlcNAc
# In short: as §1
# [10] = target: Fuc(a1-2)Gal(b1-4)[Fuc(a1-3)]GlcNAc(b1-3)Gal(b1-4)[Fuc(a1-3)]GlcNAc
# In short: as §1
# [11] = target: Fuc(a1-2)Gal(b1-4)[Fuc(a1-3)]GlcNAc(b1-3)Gal(b1-4)[Fuc(a1-3)]GlcNAc(b1-3)Gal(b1-4)[Fuc(a1-3)]GlcNAc
# In short: as §1
# [12] = target: Fuc(a1-2)Gal(b1-4)[Fuc(a1-3)]GlcNAc(b1-3)GalNAc
# In short: as §1
# [13] = target: Fuc(a1-2)Gal(b1-4)[Fuc(a1-3)]GlcNAc(b1-3)[Neu5Ac(a2-6)Gal(b1-4)GlcNAc(b1-6)]Gal(b1-4)Glc
# In short: as §1
# [14] = target: Fuc(a1-2)Gal3S(b1-4)GlcNAc
# In short: as §1
# [15] = target: Fuc(a1-2)Gal6S(b1-3)GlcNAc
# In short: as §1
# [16] = target: Fuc(a1-2)Gal6S(b1-3)GlcNAc6S
# In short: as §1
# Fuc(a1-2)Gal6S(b1-4)Glc = target: Fuc(a1-2)Gal6S(b1-4)Glc
# In short: as §1
# [17] = target: Fuc(a1-2)Gal6S(b1-4)Glc6S
# In short: as §1
# Fuc(a1-2)[Gal(a1-3)]Gal = target: Fuc(a1-2)[Gal(a1-3)]Gal
# In short: as §1
# [18] = target: Fuc(a1-2)[Gal(a1-3)]Gal(b1-3)GalNAc
# In short: as §1
# [19] = target: Fuc(a1-2)[Gal(a1-3)]Gal(b1-3)GalNAc(b1-3)Gal(a1-4)Gal(b1-4)Glc
# In short: as §1
# [20] = target: Fuc(a1-2)[Gal(a1-3)]Gal(b1-3)GlcNAc
# In short: as §1
# [21] = target: Fuc(a1-2)[Gal(a1-3)]Gal(b1-3)GlcNAc(b1-2)Man(a1-3)[Fuc(a1-2)[Gal(a1-3)]Gal(b1-3)GlcNAc(b1-2)Man(a1-6)]Man(b1-4)GlcNAc(b1-4)GlcNAc
# In short: as §1
# [22] = target: Fuc(a1-2)[Gal(a1-3)]Gal(b1-3)GlcNAc(b1-2)Man(a1-3)[Fuc(a1-2)[Gal(a1-3)]Gal(b1-3)GlcNAc(b1-2)Man(a1-6)]Man(b1-4)GlcNAc(b1-4)[Fuc(a1-6)]GlcNAc
# In short: as §1
# [23] = target: Fuc(a1-2)[Gal(a1-3)]Gal(b1-3)GlcNAc(b1-3)GalNAc
# In short: as §1
# [24] = target: Fuc(a1-2)[Gal(a1-3)]Gal(b1-3)GlcNAc(b1-6)GalNAc
# In short: as §1
# [25] = target: Fuc(a1-2)[Gal(a1-3)]Gal(b1-4)Glc
# In short: as §1
# [26] = target: Fuc(a1-2)[Gal(a1-3)]Gal(b1-4)GlcNAc
# In short: as §1
# [27] = target: Fuc(a1-2)[Gal(a1-3)]Gal(b1-4)GlcNAc(b1-2)Man
# In short: as §1
# [28] = target: Fuc(a1-2)[Gal(a1-3)]Gal(b1-4)GlcNAc(b1-2)Man(a1-3)[Fuc(a1-2)[Gal(a1-3)]Gal(b1-4)GlcNAc(b1-2)Man(a1-6)]Man(b1-4)GlcNAc(b1-4)GlcNAc
# In short: as §1
# [29] = target: Fuc(a1-2)[Gal(a1-3)]Gal(b1-4)GlcNAc(b1-2)Man(a1-3)[Fuc(a1-2)[Gal(a1-3)]Gal(b1-4)GlcNAc(b1-2)Man(a1-6)]Man(b1-4)GlcNAc(b1-4)[Fuc(a1-6)]GlcNAc
# In short: as §1
# [30] = target: Fuc(a1-2)[Gal(a1-3)]Gal(b1-4)GlcNAc(b1-3)GalNAc
# In short: as §1
# [31] = target: Fuc(a1-2)[Gal(a1-3)]Gal(b1-4)GlcNAc(b1-3)[Fuc(a1-2)[Gal(a1-3)]Gal(b1-4)GlcNAc(b1-6)]GalNAc
# In short: as §1
# [32] = target: Fuc(a1-2)[Gal(a1-3)]Gal(b1-4)GlcNAc(b1-6)GalNAc
# In short: as §1
# [33] = target: Fuc(a1-2)[Gal(a1-3)]Gal(b1-4)[Fuc(a1-3)]Glc
# In short: as §1
# [34] = target: Fuc(a1-2)[Gal(a1-3)]Gal(b1-4)[Fuc(a1-3)]GlcNAc
# In short: as §1
# [35] = target: Fuc(a1-2)[Gal(a1-3)]Gal(b1-4)[Fuc(a1-3)]GlcNAc(b1-3)GalNAc
# In short: as §1
binder,measurement,setting,value
B1,glycan array binding signal (z-score),[1],-0.111
same,glycan array binding signal (z-score),[2],1.06
same,glycan array binding signal (z-score),[3],2.81
same,glycan array binding signal (z-score),[4],-1.04
same,glycan array binding signal (z-score),[5],1.06
same,glycan array binding signal (z-score),[6],-0.167
same,glycan array binding signal (z-score),[7],-0.845
same,glycan array binding signal (z-score),[8],0.514
same,glycan array binding signal (z-score),[9],0.675
same,glycan array binding signal (z-score),[10],-0.588
same,glycan array binding signal (z-score),[11],0.874
same,glycan array binding signal (z-score),[12],1.93
same,glycan array binding signal (z-score),[13],0.856
same,glycan array binding signal (z-score),[14],-0.165
same,glycan array binding signal (z-score),[15],-0.245
same,glycan array binding signal (z-score),[16],0.519
same,glycan array binding signal (z-score),Fuc(a1-2)Gal6S(b1-4)Glc,-0.27
same,glycan array binding signal (z-score),[17],1.57
same,glycan array binding signal (z-score),Fuc(a1-2)[Gal(a1-3)]Gal,-0.331
same,glycan array binding signal (z-score),[18],-0.587
same,glycan array binding signal (z-score),[19],-0.018
same,glycan array binding signal (z-score),[20],-0.503
same,glycan array binding signal (z-score),[21],0.02
same,glycan array binding signal (z-score),[22],0.613
same,glycan array binding signal (z-score),[23],-0.241
same,glycan array binding signal (z-score),[24],1.09
same,glycan array binding signal (z-score),[25],-0.237
same,glycan array binding signal (z-score),[26],-0.351
same,glycan array binding signal (z-score),[27],-1.02
same,glycan array binding signal (z-score),[28],0.307
same,glycan array binding signal (z-score),[29],-0.019
same,glycan array binding signal (z-score),[30],0.073
same,glycan array binding signal (z-score),[31],1.53
same,glycan array binding signal (z-score),[32],0.037
same,glycan array binding signal (z-score),[33],-0.907
same,glycan array binding signal (z-score),[34],1.66
same,glycan array binding signal (z-score),[35],0.818

# Another view of part of the listing above.
binder	measurement	setting	value
B1	glycan array binding signal (z-score)	[14]	-0.165
same	glycan array binding signal (z-score)	[15]	-0.245
same	glycan array binding signal (z-score)	[16]	0.519
